The list does not hold the whole screen: it gathers tests that were run many times, whatever their T/C, doses with no T/C, and many T/C values between a quarter and a half above the control. Further doses and runs are listed elsewhere. T/C is the treated group as % of the vehicle group. Some doses have a count of surviving animals in place of a T/C: the source files T/C as zero there, which appears to mark a toxic dose or a test without result, not a measured value. Some survivor counts are full or nearly so, which does not show that the dose was tolerated: survival well below the control is almost never listed, so the zero probably covers shortened survival too. Counts of survivors are from the toxicity check (mostly the fifth day) where no day follows; animals may have died later. Schedules are NCI's codes, read here as Q, the interval in days (D) or hours (H), X, the number of doses. Some entries hold several experiments; their values stand side by side, smallest first. Where survival is the endpoint, the PubChem record calls one and a half times the control and up active, and a quarter to a half above the control has no call in these data; cut-offs in other NCI protocols can differ. Some T/C values carry the count of animals alive at the toxicity check (mostly the fifth day); where none is given, no animal had died by that day.
Test system: P388 leukemia ip, CD2F1 mice, survival T/C
Experiment: NCI In Vivo Anticancer Drug Screen. Data for tumor model P388 Leukemia (intraperitoneal) in CD2F1 (CDF1) mice
Settings: T/C endpoint: median survival time, higher T/C = longer survival
[1] = dose: 50.0 mg/kg/injection, schedule: Q01DX009 (ip), vehicle: saline with Tween-80
[2] = dose: 20.0 mg/kg/injection, schedule: Q01DX005 (ip), vehicle: Klucel (hydroxypropylcellulose) (HPC)
[3] = dose: 40.0 mg/kg/injection, schedule: Q01DX005 (ip), vehicle: Klucel (hydroxypropylcellulose) (HPC)
[4] = dose: 240.0 mg/kg/injection, schedule: Q01DX005 (ip), vehicle: saline
[5] = dose: 100.0 mg/kg/injection, schedule: Q01DX009 (ip), vehicle: gum acacia
[6] = dose: 100.0 mg/kg/injection, schedule: Q01DX005 (ip), vehicle: Klucel (hydroxypropylcellulose) (HPC)
[7] = dose: 200.0 mg/kg/injection, schedule: Q01DX005 (ip), vehicle: Klucel (hydroxypropylcellulose) (HPC)
[8] = dose: 240.0 mg/kg/injection, schedule: Q01DX005 (ip), vehicle: saline with Tween-80
[9] = dose: 200.0 mg/kg/injection, schedule: Q01DX009 (ip), vehicle: saline
[10] = dose: 200.0 mg/kg/injection, schedule: Q01DX005 (ip), vehicle: saline with Tween-80
[11] = dose: 100.0 mg/kg/injection, schedule: Q01DX009 (ip), vehicle: saline

With `C=C(CN(C)C)C(=O)c1ccc(C(=O)C(=C)CN(C)C)cc1` the survivor count (dose: 6.25 mg/kg/injection, schedule: Q01DX005 (ip), vehicle: saline) was 3 of 6, the survivor count (dose: 12.5 mg/kg/injection, schedule: Q01DX005 (ip), vehicle: saline) was 0 of 6 and the survivor count (dose: 25.0 mg/kg/injection, schedule: Q01DX005 (ip), vehicle: saline) was 0 of 6. For the same compound, the survivor count (dose: 50.0 mg/kg/injection, schedule: Q01DX005 (ip), vehicle: saline) was 0 of 6, the survivor count (dose: 100.0 mg/kg/injection, schedule: Q01DX005 (ip), vehicle: saline) was 0 of 6 and the survivor count (dose: 200.0 mg/kg/injection, schedule: Q01DX005 (ip), vehicle: saline) was 0 of 6.
`CCCOP(=S)(N1CC1(C)C)N1CC1(C)C` (stereo unspecified) was tested, and the T/C [1] was 140 % of control, the T/C (dose: 66.0 mg/kg/injection, schedule: Q01DX009 (ip), vehicle: saline with Tween-80) was 135 % of control and the T/C (dose: 100.0 mg/kg/injection, schedule: Q01DX009 (ip), vehicle: saline with Tween-80) was 135 % of control.
With `O=C1NC(=O)C(CCC[n+]2ccccc2)(c2ccccc2)C(=O)N1` the survivor count (dose: 200.0 mg/kg/injection, schedule: Q01DX009 (ip), vehicle: saline with Tween-80) was 0 of 6.
`CC(CCC1(O)OC2CC3C4CC=C5CC(OC6OC(CO)C(OC7OC(C)C(O)C(O)C7O)C(O)C6O)CCC5(C)C4CCC3(C)C2C1(C)C)COC1OC(C)C(O)C(O)C1O` (stereo unspecified) was tested, and the survivor count (dose: 10.0 mg/kg/injection, schedule: Q01DX005 (ip), vehicle: Klucel (hydroxypropylcellulose) (HPC)) was 2 of 5, the survivor count [2] was 3 of 5 and the survivor count [3] was 0 of 5.
For `[N-]=[N+]=N/C=C/C(=O)OCCBr`, the survivor count (dose: 120.0 mg/kg/injection, schedule: Q01DX005 (ip), vehicle: saline) was 3 of 6 and the survivor count [4] was 0 of 6.
In the case of `Cc1cccc(-c2nc(=S)nc(N)s2)c1`, the survivor count (dose: 400.0 mg/kg/injection, schedule: Q01DX001 (ip), vehicle: saline with Tween-80) was 0 of 6.
With `COc1ccc(/C=N/N2CN(C(C)C(=O)O)B(NCCC(C)C)N=C2N)cc1OC` (stereo unspecified) the survivor count [4] was 2 of 6.
With `CC(=O)C1=C(O)C2(C)c3c(O)c(C)c(O)c(C(C)=O)c3OC2CC1=O` (stereo unspecified) the T/C [5] was 128 % of control, the survivor count [5] was 2 of 6 and the survivor count (dose: 200.0 mg/kg/injection, schedule: Q01DX009 (ip), vehicle: gum acacia) was 0 of 6.
With `CCOC(=O)C(C(C)=O)C(=O)C(C)(C)C` (stereo unspecified) the survivor count [1] was 6 of 6.
`CC(O)(c1ccco1)c1nc2ccccc2s1` (stereo unspecified) was tested, and the survivor count (dose: 240.0 mg/kg/injection, schedule: Q01DX005 (ip), vehicle: Klucel (hydroxypropylcellulose) (HPC)) was 0 of 6.
In the case of `CC(C)=C1CC(C)(C)N2CCCC12` (stereo unspecified), the survivor count [6] was 0 of 6 and the survivor count [7] was 0 of 6.
With `CCCCCCCCCCCC1CCCC(C)N1` (stereo unspecified) the survivor count [6] was 0 of 6.
In the case of `CSc1cccc(NC(=O)Nc2ccc(S(N)(=O)=O)cc2)c1`, the survivor count (dose: 200.0 mg/kg/injection, schedule: Q01DX009 (ip), vehicle: Klucel (hydroxypropylcellulose) (HPC)) was 6 of 6.
With `Nc1nc(N)c(SC(F)(F)F)c(Cl)n1` the survivor count [8] was 1 of 6.
In the case of `COc1ccc(NC(=S)NN)cc1`, the survivor count (dose: 150.0 mg/kg/injection, schedule: Q01DX009 (ip), vehicle: saline with Tween-80) was 2 of 6, the survivor count (dose: 200.0 mg/kg/injection, schedule: Q04DX003 (ip), vehicle: saline with Tween-80) was 5 of 6 and the survivor count (dose: 400.0 mg/kg/injection, schedule: Q04DX003 (ip), vehicle: saline with Tween-80) was 3 of 6.
`CP(C)(=S)[S][Sn]([CH3])([CH3])[S]P(C)(C)=S` was tested, and the T/C (dose: 50.0 mg/kg/injection, schedule: Q01DX005 (ip), vehicle: Klucel (hydroxypropylcellulose) (HPC), evaluated on day 20) was 106 [4 of 6 alive], 120 [5 of 6 alive], 121 % of control [5 of 6 alive], the T/C (dose: 50.0 mg/kg/injection, schedule: Q01DX005 (ip), vehicle: Klucel (hydroxypropylcellulose) (HPC), evaluated on day 30) was 132 % of control and the survivor count [6] was 5 of 6. For the same compound, the survivor count [7] was 6 of 6.
For `CCN(CC)CCOCc1cccc2c(=O)cc(-c3ccccc3)oc12`, the survivor count [9] was 0 of 6.
With `C=CC1(C)OC(=NC(C)(C)CO)c2cc(C)c(OC)cc21` (stereo unspecified) the survivor count [10] was 3 of 6.
In the case of `CC1(C)C(C=O)=CCC1CC(N)=O` (stereo unspecified), the survivor count [8] was 2 of 6.
In the case of `COc1ccc2c(c1)NC(=O)Cn1nnnc1-2`, the survivor count (dose: 100.0 mg/kg/injection, schedule: Q04DX002 (ip), vehicle: saline with Tween-80) was 6 of 6 and the survivor count (dose: 200.0 mg/kg/injection, schedule: Q04DX002 (ip), vehicle: saline with Tween-80) was 5 of 6.
`CCC(=O)c1nc(N)[nH]c1CC` was tested, and the survivor count [2] was 3 of 6, the survivor count [3] was 0 of 6 and the survivor count (dose: 80.0 mg/kg/injection, schedule: Q01DX005 (ip), vehicle: Klucel (hydroxypropylcellulose) (HPC)) was 0 of 6.
For `C[N+](C)(C)CCC(=O)c1ccc(Cl)cc1`, the survivor count (dose: 50.0 mg/kg/injection, schedule: Q01DX009 (ip), vehicle: saline) was 2 of 6, the survivor count [11] was 0 of 6 and the survivor count [9] was 0 of 6.
For `COc1cccc2c1C(=O)c1c(O)c3c(c(O)c1C2=O)C[C@@](O)(C(C)=O)C[C@@H]3OC1CC([N+]([O-])(Cc2ccccc2)Cc2ccccc2)C(O)C(C)O1` (stereo partly specified), the T/C (dose: 12.5 mg/kg/injection, schedule: Q04DX003 (ip), vehicle: distilled water + Tween-80) was 136 % of control.
In the case of `COC(=O)c1cccc2cccc(C(=O)N(C)CCN(C)C)c12`, the survivor count [8] was 6 of 6.
For `c1ccc(-c2nc[nH]c2-c2ccccc2)cc1`, the survivor count (dose: 50.0 mg/kg/injection, schedule: Q01DX009 (ip), vehicle: suspension in saline) was 4 of 6.
For `CCOC(=O)/C(C#N)=N/O`, the T/C (dose: 25.0 mg/kg/injection, schedule: Q01DX009 (ip), vehicle: saline) was 125 % of control.
In the case of `O=C(O)COc1cc(Cl)c(Cl)cc1Cl`, the survivor count (dose: 400.0 mg/kg/injection, schedule: Q01DX005 (ip), vehicle: saline with Tween-80) was 0 of 6.
`CC(C)n1cc(C(C)(C)C)nc1SSc1nc(C(C)(C)C)cn1C(C)C` was tested, and the survivor count [7] was 0 of 6.
With `O=C1Nc2ccccc2/C1=N/N=C/c1ccc(Cl)cc1Cl` the survivor count (dose: 50.0 mg/kg/injection, schedule: Q01DX009 (ip), vehicle: Klucel (hydroxypropylcellulose) (HPC)) was 6 of 6.
`CC1=CC(=O)C(=O)C2=C1OC1(C2)C(C)CCC2C3(C)CCC(O)C(C)(C)C3CCC21C` (stereo unspecified) was tested, and the T/C (dose: 100.0 mg/kg/injection, schedule: Q01DX005 (ip), vehicle: distilled water + Tween-80) was 135 % of control, the survivor count (dose: 200.0 mg/kg/injection, schedule: Q01DX005 (ip), vehicle: distilled water + Tween-80) was 0 of 5 and the survivor count [10] was 2 of 6.
For `COc1cccc2c1C(=O)c1c(O)c3c(c(O)c1C2=O)C[C@@](O)(/C(CO)=N/NS(=O)(=O)c1ccc(C)cc1)C[C@@H]3OC1CC(N)C(O)C(C)O1` (stereo partly specified), the T/C (dose: 0.78 mg/kg/injection, schedule: Q01DX009 (ip), vehicle: water) was 125 % of control, the T/C (dose: 3.13 mg/kg/injection, schedule: Q01DX009 (ip), vehicle: water) was 125 and 137 % of control and the T/C (dose: 12.5 mg/kg/injection, schedule: Q01DX009 (ip), vehicle: water) was 125 % of control.
For `Oc1ccc(CCl)c2cccnc12`, the T/C [11] was 130 % of control, the survivor count [9] was 4 of 6 and 6 of 6 and the survivor count (dose: 400.0 mg/kg/injection, schedule: Q01DX009 (ip), vehicle: saline) was 0 of 6.
In the case of `C(#CC1CO1)CCCC#CC1CO1` (stereo unspecified), the survivor count (dose: 100.0 mg/kg/injection, schedule: Q01DX005 (ip), vehicle: saline with Tween-80) was 3 of 6 and the survivor count [10] was 0 of 6.
For `CCOC(=O)/C=C/c1c[nH]c(=O)[nH]c1=O`, the survivor count (dose: 200.0 mg/kg/injection, schedule: Q01DX009 (ip), vehicle: distilled water + Tween-80) was 6 of 6.
With `C[Si]1(C)CC[Si](C)(C)S1` the survivor count [10] was 0 of 5.
For `N#CCc1ccccc1Br`, the survivor count [10] was 0 of 5.
